Assay results reported in paper PMC10351895.
No constants are given. Whether binding was seen depends on the method and setting. In cells and extracts the contact can be indirect. Some entries that bind do so weakly or less than the wild type. Tags and fused reporters may be left off the sequences shown.

Columns and labels:
[1] = target: T1, 3A-MTREX (endogenous gene tagged) (mouse (endogenous in mESCs)) (UniProt Q9CZU3); assay: co-IP; as a3, but lysis in co-IP buffer supplemented with RNase A (1 µL of 10 mg/mL in 900 µL)
T1 sequence (chain, biotin on the AviTag (cells express bacterial BirA ligase)): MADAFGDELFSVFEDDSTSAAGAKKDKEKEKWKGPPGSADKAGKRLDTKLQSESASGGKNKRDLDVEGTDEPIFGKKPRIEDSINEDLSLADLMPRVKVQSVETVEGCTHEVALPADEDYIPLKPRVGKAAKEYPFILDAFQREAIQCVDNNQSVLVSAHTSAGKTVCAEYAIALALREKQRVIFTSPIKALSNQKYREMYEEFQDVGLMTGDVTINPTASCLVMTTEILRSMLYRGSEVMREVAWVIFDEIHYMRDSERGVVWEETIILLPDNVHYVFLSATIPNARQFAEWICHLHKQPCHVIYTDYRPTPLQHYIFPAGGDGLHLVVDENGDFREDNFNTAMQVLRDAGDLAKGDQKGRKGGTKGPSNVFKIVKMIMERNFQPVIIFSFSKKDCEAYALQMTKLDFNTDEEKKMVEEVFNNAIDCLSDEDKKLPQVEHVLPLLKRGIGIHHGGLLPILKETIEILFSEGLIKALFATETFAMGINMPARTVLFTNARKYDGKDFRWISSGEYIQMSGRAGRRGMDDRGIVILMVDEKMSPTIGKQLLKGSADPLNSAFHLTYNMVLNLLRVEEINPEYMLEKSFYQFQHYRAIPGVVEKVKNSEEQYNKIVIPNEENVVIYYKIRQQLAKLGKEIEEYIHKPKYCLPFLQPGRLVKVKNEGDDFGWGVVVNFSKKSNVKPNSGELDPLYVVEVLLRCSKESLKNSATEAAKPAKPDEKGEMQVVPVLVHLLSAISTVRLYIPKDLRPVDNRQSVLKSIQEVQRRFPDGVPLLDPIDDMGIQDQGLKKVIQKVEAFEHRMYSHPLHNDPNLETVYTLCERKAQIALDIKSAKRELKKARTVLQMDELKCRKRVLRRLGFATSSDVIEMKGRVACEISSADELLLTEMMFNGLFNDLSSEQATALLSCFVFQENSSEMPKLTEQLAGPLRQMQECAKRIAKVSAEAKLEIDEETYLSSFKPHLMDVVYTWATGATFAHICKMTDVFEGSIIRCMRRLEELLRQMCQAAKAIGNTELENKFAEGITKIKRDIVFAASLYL

[2] = target: T1, 3A-MTREX (endogenous gene tagged) (mouse (endogenous in mESCs)); assay: co-IP; streptavidin beads capture the endogenous biotinylated 3A-tagged protein from lysate of mESCs transiently transfected with NRDE2 constructs; co-IP buffer 20 mM Tris-HCl pH 7.5, 150 mM NaCl, 1 mM EDTA, 1% Triton X-100; without RNase A; western blot

binding [1]: binds
binding [2]: binds
B1: V5-NRDE2 fused to 2A-Puro (protein, UniProt Q80XC6 1-1172)
chain: MALFPAFADVSEASGDGAFRKELDWLSNPSFRVGNLTSLSRQTEEVTALASEGSPPPRYSFIRSPLKSELSGESNTSEKLAQTSRKKKKEKKKRRKHQHHRKTKRRHEQLSSSGSESDTEAGKDRASRSIRDDQKEAEKPCQGSNAAAAVAAAAGHRSIWLEDIHDLTDVFRTDKKPDPANWEYKSLYRGDIARYKRKGDSCLGINPKKQCISWEGASAAKKHSHRHLERYFTKKNVGLMRTEGIAVCSNPEPASSEPVTFIPVKDSAEAATPVTSWLNPLGIYDQSTTQWLQGQGPAEQESKQPDSQQDRENAALKARVEEFNRRVRENPWDTQLWMAFVAFQDEVMRSPGIYALGEGEQEKHRKSLKLLLEKKLAVLERAIESNPGSVELKLAKLQLCSEFWEPSALAKEWQKLLFLHPNNTSLWQRYLSFCQSQFGTFSVSKLHSLYGKCLSTLSAVKDGSMLSHPVLPGTEEAMFGLFLQQCHFLRQAGHSEKVISLFQAMVDFTFFKPDSVKELPTKVQVEFFEPFWDSGEPRVGEKGARGWRAWMHQQERGGWVLITPDEDDEEPEEEDQEIKDKTLPRWQIWLAVERSRDQRHWRPWRPDKTKKQTEEDCEDPERQVLFDDIGQSLIRLSSPDLQFQLIQAFLQFLGVPSGFLPPASCLYLAMDESSIFESELYDEKPLTYFNPSFSGISCVGSMEQLGRPRWTKGHNREGEEFVRNVFHLVLPLLAGKQKSQLSLSWLRYEIAKVIWCLHTKKKRLKSQGKSCKKLAKNLLKEPENRNNFCLWKQYAHLEWLLGNTEDARKVFDTALSMAGSSELKDRELCELSLLYAELEMELSPDSRGATTGRAVHILTRLTESSPYGPYTGQVSSTQVLKARKAYELALQDCLGQSCASSPAPAEALDCLGSLVRCFMLFQYLTVGIDAAVQIYGRVFAKLKGSARLEDPGPEDSTSSQSLTNVLEAVSMMHTSLLRFHMNVCVYPLAPLRETLSDALKLYPGNQVLWRAYVQIQNKSHSANKTRRFFDTVTRSAKHLEPWLFAIEAEKLRKKLVESVQRVGGREVHATIPETGLTHRIRALFENAIRSDKGNQCPLLWRMYLNFLVSLGNKERSKGVFYKALQSCPWAKVLYMDAMEYFPDELQEILDVMTEKELRVRLPLEELELLLED
